The nature of the series: peptide synthesis. The note with it: late stage modification step, hydrochloride.

As for “N^15 -tert-butyloxycarbonyl deglucoteicoplanin”, the step yield is recorded as 92%. “O^56 -(1-carboxy-3-hydroxypropyl)deglucoteicoplanin methyl ester hydrochloride”: the step yield entry was “about 25%”. In the case of “O^56 -(4-aminobutyl)deglucoteicoplanin methyl ester”, the “final HPLC purity” value (HPLC) was over 95% HPLC titer. Turning to “O^56 -[2-(1-pyrrolidinyl)ethyl]deglucoteicoplanin methyl ester dihydrochloride”, the “purity (crude or final not stated)” value (HPLC) is “HPLC purity 85%”.

(Values after US5185320A (Gruppo Lepetit S.p.A., priority 1989, dated 1993).)
